Source: patent publication EP3205663A1
These are yes or no findings as the source states them, for the method shown. For some of these results: Binding seen in cells or lysates may run through a third protein. Some results given as binding are weak or reduced against the parent protein; the word gives no strength.

Sequences of proteins named here, by UniProt entry; tags and fusion partners are left off. A change or cut given only in a name is not applied to a line headed by its entry.
UniProt Q00403: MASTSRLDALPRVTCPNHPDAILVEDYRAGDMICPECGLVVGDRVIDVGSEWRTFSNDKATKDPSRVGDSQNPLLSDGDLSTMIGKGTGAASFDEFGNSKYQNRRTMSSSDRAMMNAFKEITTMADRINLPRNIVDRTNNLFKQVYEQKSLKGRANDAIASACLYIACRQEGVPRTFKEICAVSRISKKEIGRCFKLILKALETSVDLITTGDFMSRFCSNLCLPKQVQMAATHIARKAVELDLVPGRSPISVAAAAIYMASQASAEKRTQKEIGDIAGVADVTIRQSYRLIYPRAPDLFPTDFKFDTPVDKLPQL
UniProt Q80A33: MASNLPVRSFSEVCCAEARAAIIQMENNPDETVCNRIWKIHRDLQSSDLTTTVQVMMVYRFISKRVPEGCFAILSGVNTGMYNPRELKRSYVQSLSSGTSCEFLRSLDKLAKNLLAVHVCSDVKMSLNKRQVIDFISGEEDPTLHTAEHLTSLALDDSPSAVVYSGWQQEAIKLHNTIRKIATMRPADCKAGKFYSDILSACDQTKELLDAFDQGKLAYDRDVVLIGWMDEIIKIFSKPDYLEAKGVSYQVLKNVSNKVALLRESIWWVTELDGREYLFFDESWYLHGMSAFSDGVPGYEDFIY

Key:
recombinant GST-TFIIB [1] = biological target: recombinant GST-TFIIB (UniProt Q00403); assay: co-precipitation with recombinant GST-TFIIB (Figure 9), as summed up in the description
recombinant GST-TFIIB [2] = biological target: recombinant GST-TFIIB (UniProt Q00403); assay: co-precipitation of 35S-labelled GFP-ML fragment with recombinant GST-TFIIB, autoradiography
recombinant GST-TFIIB [3] = biological target: recombinant GST-TFIIB (UniProt Q00403); assay: summary of the fragment experiments in the description

Substance	binding (recombinant GST-TFIIB [1])	binding (recombinant GST-TFIIB [2])	binding (recombinant GST-TFIIB [3])
GFP-ML (247-304; C-terminal 57 AA) (from UniProt Q80A33 247-304)	binds	binds	
ML fragment of aa 249 to 304 (from UniProt Q80A33 249-304)	binds		binds
